Data as given in PubChem BioAssay AID504834 (National Center for Advancing Translational Sciences (NCATS), 2011).
Hit rate of the full screen: of about 320,000 compounds, about 22,000 (6.9%) were called active. The inconclusive results got no clear call from the source; some entries with a clear call stand among them for comparison. Calls follow the shape of the dose curve; as a rule, active = well fitted inhibition curve with a large enough effect; inconclusive = small, poorly fitted or top-dose-only effect, or another doubt; inactive = no such curve, though single readings can be large or run the other way. A potency beside an inconclusive call is a rough fit, not a confirmed value.

Experiment: Primary qHTS for delayed death inhibitors of the malarial parasite plastid, 96 hour incubation
Conditions: P. falciparum luciferase reporter growth; series mostly up to 28.7 µM; activity change, negative = inhibition: at the top concentration
In short: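 Two-generation exposure (96 h) targets delayed-death phenotype. Reporter parasites carrying integrated firefly luciferase, in red cells at 2% hematocrit and 0.05% parasitemia final, kept at 37 C, 5% CO2; luminescence loss indicates inhibition.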
% is scaled to controls: 0 for no effect and ±100 for the full control effect; potency is read from the fitted curve at half-maximal effect.

SMILES | Potency | activity change, negative = inhibition
CCc1ccccc1NC(=O)CNC(=O)CCNC(=O)Nc1ccccc1 | inconclusive: 14.7 µM [inhibitor, single point] | –
CC(=O)CC(C)=NCCN=C(C)CC(C)=O | inconclusive: 7.38 µM [inhibitor, partial curve] | –
COc1ccc(C(=O)NCc2nnc(SCC(=O)Nc3ccccc3OC)n2C)cc1 | inconclusive: 14.7 µM [inhibitor, partial curve] | –
Cc1cc(O)c(C2(C(F)(F)F)NCCNC2=O)cc1C (stereo not drawn) | inconclusive: 9.28 µM [inhibitor, partial curve, poor fit] | –
CCOC(=O)[C@H]1[C@H]2COc3ccc(Cl)cc3[C@@H]2N2C(=O)CN(C)C(=O)[C@@]12C | inconclusive: 2.94 µM [inhibitor, single point] | –
O=C(Cc1c(F)cccc1Cl)Nc1ccccn1 | inconclusive: 2.94 µM [inhibitor, single point] | –
O=S1(=O)CCN(Cc2ccccn2)CC1 | inconclusive: 0.117 µM [inhibitor, full curve, poor fit] | –
CCC1=C(OC(=O)N(CC)CC)N2C(=O)OC(=NCC(=O)OC)[C@]2(Cc2ccccc2)[C@H]2C1=CC[C@H]1C(=O)N(CC(=O)OC)C(=O)[C@H]12 | inconclusive: 0.0657 µM [inhibitor, full curve, poor fit] | –
COc1ccccc1C(=O)Nc1cc2c(cc1C(=O)O)OCCCO2 | – | inactive: -3.22%
Cn1c2cc([N+](=O)[O-])sc2c2cnn(Cc3ccccc3F)c(=O)c21 | inconclusive: 4.15 µM [inhibitor, single point] | –
Cc1ccc(OCc2cc(C(=O)N3CCCC3)no2)cn1 | – | inactive: 14.6%
CC1CCN(c2cc(N3CCOCC3)c([N+](=O)[O-])cc2F)CC1 | active: 14.7 µM | –
O=C(NCCN1CCOCC1)c1c(Cl)cccc1Cl | inconclusive: 18.5 µM [inhibitor, single point] | –
Cc1c(-c2ccccc2)oc2c(C(=O)OCC(=O)Nc3ccc(F)cc3)cccc2c1=O | – | inactive: 13.3%
O=C(CCNC(=O)c1ccc([N+](=O)[O-])cc1)Nc1ccc(F)cc1F | – | inactive: 58.3%
CC(C)NC(=S)Nc1ccc2[nH]c(=O)[nH]c2c1 | inconclusive: 18.5 µM [inhibitor, single point] | –
c1cc2c(cc1CCNC1C3CC4CC(C3)CC1C4)OCO2 (stereo not drawn) | inconclusive: 18.5 µM [inhibitor, single point] | –
Cn1c(=O)c2c(SCC(=O)N3CCOCC3)nc(-c3ccccc3F)nc2n(C)c1=O | inconclusive: 18.5 µM [inhibitor, single point] | –
Cc1c(C)c(C)c(C(=O)C2CCN(c3ccc([N+](=O)[O-])cn3)CC2)c(C)c1C | inconclusive: 2.08 µM [inhibitor, partial curve, poor fit] | –
NC(=O)N/N=C/c1coc2ccc(O)cc2c1=O | inconclusive: 18.5 µM [inhibitor, single point] | –
O=C(CCC(=O)N1CCN(Cc2ccccc2)CC1)Nc1nnc(C2CCCCC2)s1 | inconclusive: 18.5 µM [inhibitor, single point] | –
COc1ccc(CC(=O)OCC(=O)Nc2ccc(N3CCOCC3)cc2)cc1 | inconclusive: 20.8 µM [inhibitor, partial curve, poor fit] | –
Cc1ccc(NC(=O)c2ccc(NS(=O)(=O)c3ccc4[nH]c(=O)[nH]c4c3)cc2)nc1 | – | inactive: 18.8%

SMILES | Potency | activity change, negative = inhibition
COc1ccc(CCNC(=O)COC(=O)Cc2cc(OC)c(OC)c(OC)c2)cc1 | inconclusive: 4.15 µM [inhibitor, single point] | –
COCCn1c(SCC(=O)Nc2ccccc2C(F)(F)F)nc2ccccc2c1=O | inconclusive: 18.5 µM [inhibitor, single point] | –
COc1ccc(CCNC(=O)C(C)OC(=O)c2ccco2)cc1OC (stereo not drawn) | inconclusive: 0.0738 µM [inhibitor, full curve, poor fit] | –
Cc1cnn(Cc2ccccc2)c1N | inconclusive: 18.5 µM [inhibitor, single point] | –
S=C(N/N=C/c1ccccc1Cl)Nc1ccccc1 | inconclusive: 0.738 µM [inhibitor, full curve, poor fit] | –
Cc1ccc(N=C2C(=O)Nc3ccc(Br)cc32)cc1 | – | inactive: 31.9%
Cc1ccc(SC[C@H](CC(C)C)N2CCN(CCc3ccccc3)CCC2=O)cc1 | inconclusive: 18.5 µM [inhibitor, single point] | –
CN(C)C(=O)COn1c(SCC(=O)N(C)C)nc2ccccc2c1=O | inconclusive: 4.65 µM [inhibitor, partial curve, poor fit] | –
COc1ccc2[nH]c(C(O)(Cc3cccnc3)Cc3cccnc3)cc2c1 | inconclusive: 0.37 µM [inhibitor, full curve, poor fit] | –
O=C(CC1SC(=Nc2ccc(OC(F)F)cc2)N(CCN2CCOCC2)C1=O)Nc1ccc(F)cc1F (stereo not drawn) | inconclusive: 18.5 µM [inhibitor, single point] | –
CCN1C(=O)[C@H]2[C@@H](c3ccc(C)cc3)N3C(=O)N(c4ccc(C)cc4)C(=O)[C@@]3(CC)[C@H]2C1=O | – | inactive: 49.7%
C/C(=N\NC(=O)c1ccc(F)cc1)c1ccc(NC(=O)Cc2ccccc2)cc1 | inconclusive: 13.1 µM [inhibitor, partial curve, poor fit] | –
O=C(NCCCNC(=O)c1ccc(-c2cc(Cl)ccc2Cl)o1)c1cnccn1 | inconclusive: 4.65 µM [inhibitor, partial curve, poor fit] | –
COCCN1CCC(CNCc2cn(-c3cc(C)ccc3C)nc2-c2ccccc2)C1 (stereo not drawn) | inconclusive: 18.5 µM [inhibitor, single point] | –
O=C(Nc1ccccc1Cl)Oc1ccc(-c2ccccc2)cc1 | – | inactive: 0%
N#CC1=C(N)OC2=C(C(=O)CCC2)C1c1ccc(OC(=O)N2CCOCC2)cc1 (stereo not drawn) | inconclusive: 1.85 µM [inhibitor, full curve, poor fit] | –
CCNC(=O)c1ccccc1-c1nc(-c2ccccc2Cl)no1 | inconclusive: 0.928 µM [inhibitor, partial curve, poor fit] | –
O=C(CSc1ncn[nH]1)Nc1ccc(Br)cc1F | – | inactive: 98.7%
COc1ccc(/C=C(/C(=O)c2cccs2)N2C=CC=CC2=C(C#N)C#N)cc1 | – | inactive: 56.7%
O=C(CNC(=O)c1ccccc1)OCc1cccc([N+](=O)[O-])c1 | – | inactive: 0.258%
O=C(N/N=C/c1ccc(F)cc1)c1c(O)c2ccccc2[nH]c1=O | – | inactive: -8.17%
O=C(COc1ccc(Cl)cc1)OCc1csc(Nc2ccccc2)n1 | inconclusive: 18.5 µM [inhibitor, single point] | –
CCN1CCN(c2ncnc3c2nnn3Cc2ccccc2)CC1 | – | inactive: -12.8%

SMILES | Potency | activity change, negative = inhibition
COc1ccc(C(=O)NC(=S)N(C)C2CCCCC2)cc1 | active: 11.7 µM | –
O=C(COC(=O)C1CC(=O)N(Cc2ccco2)C1)c1ccc(OC(=O)c2ccccc2)cc1 (stereo not drawn) | inconclusive: 4.65 µM [inhibitor, partial curve] | –
CCCCN1C(=O)/C(=C\c2ccco2)C(=O)N(CCc2ccccc2)C1=O | – | inactive: 36.4%
CC(=O)NC(c1cc(Cl)c2ccccc2c1O)C(C)C (stereo not drawn) | inconclusive: 5.86 µM [inhibitor, single point] | –
Cn1c(CN2CCOCC2)nnc1SCC(=O)Nc1cc(Cl)ccc1Cl | – | inactive: 169%
CCc1ccc2nc(N3CCN(C(=O)C(C)(C)C)CC3)sc2c1 | inconclusive: 18.5 µM [inhibitor, single point] | –
Nc1nc2n(n1)C(c1cccs1)CC(c1ccc(F)cc1)N2 (stereo not drawn) | – | inactive: 0.685%
COc1ccc(CNc2nc(=S)[nH]c3cc(OC)c(OC)cc23)cc1 | – | inactive: -19.8%
CC1=NN(c2ccccc2)C(=O)/C1=C\c1cc(C)n(-c2cccnc2)c1C | inconclusive: 9.28 µM [inhibitor, single point] | –
COCc1nnc(NC(=O)C2CC(=O)N(c3ccc(C)c(Cl)c3)C2)s1 (stereo not drawn) | inconclusive: 1.47 µM [inhibitor, partial curve, poor fit] | –
COC(=O)c1ccccc1OCCN1CCCCCC1 | inconclusive: 2.62 µM [inhibitor, single point] | –
O=c1[nH]cnc2c1c(-c1ccccc1)cn2-c1cccc(Cl)c1 | inconclusive: 20.8 µM [inhibitor, partial curve, poor fit] | –
CC(NC(=O)c1ccccc1Cl)C(=O)N1CCN(Cc2ccc3c(c2)OCO3)CC1 (stereo not drawn) | – | inactive: -6.18%
O=C(CCC(=O)N1CCN(c2ccccc2F)CC1)N1CCN(c2ccc(F)cc2)CC1 | inconclusive: 10.4 µM [inhibitor, single point] | –
Cc1cc(OCC(O)CNC(C)(C)C)ccc1Cl (stereo not drawn) | inconclusive: 11.7 µM [inhibitor, single point] | –
C/C(=N\NC(=O)Cc1ccc([N+](=O)[O-])cc1)c1cccnc1 | inconclusive: 18.5 µM [inhibitor, single point] | –
COc1cc(Cl)ccc1OCc1cc(C(=O)N(C)CCc2cnn(C)c2)no1 | inconclusive: 18.5 µM [inhibitor, single point] | –
CCOc1ccc2c(c1)c1nnc(SCC(=O)NC3CC3)nc1n2C | inconclusive: 10.4 µM [inhibitor, single point] | –
Cc1cc2nc(/C=C/c3nc4cc(C)c(C)cc4[nH]3)[nH]c2cc1C | active: 0.329 µM | –
Cc1cc(/C=C(\C#N)C(=O)NCc2ccco2)c(C)n1-c1ccc(C(=O)O)cc1 | inconclusive: 2.94 µM [inhibitor, full curve, poor fit] | –
COCCCNC(=O)C1CCC(CNS(=O)(=O)c2ccc(Cl)cc2)CC1 (stereo not drawn) | – | inactive: 46.6%
Clc1ncnc2scc(C3COc4ccccc4O3)c12 (stereo not drawn) | active: 2.62 µM | –

Grouped by structure: the entries above containing a thiophene ring, fused or not (4)
SMILES | Potency | activity change, negative = inhibition
Cn1c2cc([N+](=O)[O-])sc2c2cnn(Cc3ccccc3F)c(=O)c21 | inconclusive: 4.15 µM [inhibitor, single point] | –
COc1ccc(/C=C(/C(=O)c2cccs2)N2C=CC=CC2=C(C#N)C#N)cc1 | – | inactive: 56.7%
Nc1nc2n(n1)C(c1cccs1)CC(c1ccc(F)cc1)N2 (stereo not drawn) | – | inactive: 0.685%
Clc1ncnc2scc(C3COc4ccccc4O3)c12 (stereo not drawn) | active: 2.62 µM | –
